Measured values reported in PubChem BioAssay AID2685 (National Center for Advancing Translational Sciences (NCATS), 2010).
The list shows a part of the results. Shown are side measurements of this screen, not its main read-out; they come without a call. Compounds called inactive in the main read-out are mostly missing here. The note in brackets gives the kind of curve behind each potency; many fits are weak.

Experiment: qHTS Assay for Lipid Storage Modulators in Drosophila S3 Cells;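 as to cell number change: cells counted by Cell Tracker Red CMTPX staining in the red channel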
Settings: BODIPY lipid droplet fluorescence, 18-24 h; for cell number change: measured here: cell count max response, cells fed with added oleic acid
How it was run: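 Drosophila S3 cells loaded with oleic acid (400 uM, as added) and compounds at several concentrations; lipid droplets imaged by 488-nm laser-scanning cytometry, 500–530 nm intensity and object ratio to cell channel. Percent activity normalized to 20 uM Triacsin C.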

[1] = measured here: lipid fluorescence (Fed channel) AC50, cells fed with added oleic acid
[2] = measured here: cell number channel AC50, cells fed with added oleic acid

Structure (SMILES) | cell number change [%] | AC50 [1] | AC50 [2]
COc1ccc(OCCNC2CCCC2)cc1 | 4.55 | 1.16 µM [falling, single point] | –
CCN(CC)c1ccc(C2CC(=O)Nc3cc(OC)c(OC)cc32)cc1 (stereo not drawn) | -3.3 | 7.31 µM [rising, partial curve] | –
COc1ccc(CC(=O)NCc2ccccc2)cc1 | 7.34 | 0.461 µM [rising, full curve, poor fit] | –
COc1cccc(C=Nc2cccnc2)c1O | -12.3 | 0.259 µM [falling, full curve] | –
CCOC(=O)c1sc(NC(=O)Nc2cccc(Cl)c2)cc1C | -76.4 | 7.31 µM [falling, partial curve] | 14.6 µM [falling, partial curve]
O=C(c1ccc2nc(N3CCOCC3)sc2c1)N1CCN(c2ccc(Cl)cc2)CC1 | – | 5.8 µM [rising, partial curve] | –
O=C(CCN1CCCCC1=O)NC1CCCc2c1cnn2-c1ccccc1F (stereo not drawn) | 20.2 | 20.6 µM [rising, partial curve] | –
Cc1ccc(C(=O)COC(=O)CN2C(=O)C3C4CC(C(Br)C4Br)C3C2=O)cc1 (stereo not drawn) | 7.14 | 29.1 µM [rising, single point] | –
COc1ccc(N(CCC#N)C(=O)/C(C#N)=C/c2cccs2)cc1 | 13.2 | 2.31 µM [falling, partial curve] | –
COc1cc(OC)c(OC)cc1CNC1CCCCCC1 | -66.1 | 29.1 µM [falling, single point] | 29.1 µM [falling, single point]
COc1ccc(CN(CC(=O)NCC2CCCO2)C(=O)CCC(=O)Nc2nccs2)cc1 (stereo not drawn) | -0.794 | – | 1.46 µM [falling, partial curve]
CC(C)(C)c1ccc(-n2ncc3c2CCCC3NC(=O)CCN2CCCO2)cc1 (stereo not drawn) | – | 6.51 µM [falling, single point] | –
CN(C)c1nc(SCc2ccccc2Cl)nc2c1CCCC2 | – | 2.31 µM [rising, partial curve] | 0.731 µM [rising, full curve]
CCC(=O)Nc1c2c(nn1-c1ccc(F)cc1)CS(=O)C2 (stereo not drawn) | -5.43 | 0.00461 µM [falling, full curve, poor fit] | –
CC1CCc2nc3ccc(S(=O)(=O)N4CCC(C(=O)NCc5ccccc5Cl)CC4)cc3c(C(=O)O)c2C1 (stereo not drawn) | -15.2 | – | –
O=C(O)CC(Cc1ccc(Cl)cc1)C(=O)Nc1cc(Cl)ccc1Cl (stereo not drawn) | -20.8 | 6.51 µM [falling, single point] | –
COc1cccc(-c2nc(CS(=O)(=O)CC(=O)Nc3cc(OC)ccc3OC)c(C)o2)c1 | -15.3 | 13 µM [falling, partial curve, poor fit] | –

2 entries drawn at random from the list so far, as already listed:
Structure (SMILES) | cell number change [%] | AC50 [1] | AC50 [2]
O=C(O)CC(Cc1ccc(Cl)cc1)C(=O)Nc1cc(Cl)ccc1Cl (stereo not drawn) | -20.8 | 6.51 µM [falling, single point] | –
COc1ccc(CN(CC(=O)NCC2CCCO2)C(=O)CCC(=O)Nc2nccs2)cc1 (stereo not drawn) | -0.794 | – | 1.46 µM [falling, partial curve]
